The results in this text go back to PubChem BioAssay AID1347423 (Functional Genomics Laboratory (NCATS/FGL), 2020).

Screen size: about 52,000 sequences; about 210 (0.4%) were called active.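 The calls were made as follows: active = gene whose silencing raises cell survival under the drug, median off-target-corrected z-score across its silencing RNAs 2 or more; inactive = the rest.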 Some of the results follow.

This assay can be described thus: Resistance to Poly (ADP-Ribose) Polymerase inhibitor: Gene Identification via Genome-wide siRNA Screen. Particulars: mouse BRCA2 R2336H ES cells, olaparib, CellTiter-Glo viability; hits give high values. The source says: The role of Poly (ADP-Ribose) Polymerase (PARP) proteins in DNA repair has been elegantly utilized for the synthetic lethality-based treatment of BRCA-deficient tumors by PARP inhibitors. PARP inhibitors are now being used for treatment of BRCA-deficient breast and ovarian cancers. […] While several mechanisms of drug resistance have been identified, majority of these tumors develop drug resistance due to unknown causes. To identified novel regulators of chemo-resistance in BRCA2-mutated cells, we performed a genome wide siRNA library screen. We have found ES cells expressing a hypomorphic allele of BRCA2 to be hypersensitive to PAPP inhibitors (such as olaparib). We used ES cells expressing a mutant allele of BRCA2 that has a single amino acid substitution at position 2336 (arginine to histidine, R2336H). The screen was conducted using an Ambion (Thermo) Silencer Mouse Genome siRNA collection. The library targets 17,575 mouse genes with 3 siRNAs per gene. TET2 (E130014J05Rik) was identified as a top candidate.
Transfections were performed in 384 well plates (Corning 3707). Plates were coated with 0.1% gelatin in H2O overnight at ambient temperature. Gelatin solution was aspirated (BioTek EL406) and siRNAs were printed using a Bravo VPrep liquid handler integrated within a BioCel automation platform (Agilent). Cell viability was measured using CellTiter Glo (Promega). For transfections, […] of serum free media containing Lipofectamine RNAiMax […] was added to wells containing siRNA (0.8pmol). Lipid and siRNA were allowed to complex for 45 min at ambient temperature before addition of 1000 cells in DMEM, 30% FBS to yield final transfection mixtures containing 20 nM siRNA in DMEM, 15% FBS. PARPi (olaparib, AZD2281) was added 48 h post-transfection (500 nM) and viability (CellTiter Glo, Promega) was assayed 72 h later on a PerkinElmer Envision 2104 Multilabel plate reader. Ambion Silencer Select Negative Control #2 was incorporated on all screening plates (16 wells) and the median negative control value on each plate was used for normalization. An siRNA targeting Trp53 was used as a positive control. This control yielded a median protective effect of ~1.9 fold versus negative control throughout the screen. The median absolute deviation (MAD) based z-score was calculated for each siRNA. Genes were then ranked by taking the median value for all siRNAs tested against a given gene. Scores were also adjusted for seed-based off-target effects to help deprioritize likely false positives.
“GGACACUUUACAGUGAUUGTT against 9530098N22Rik”: the z-score is inactive: 0.616. Under “CCUCCAAUCAGAAAGGUCGTT against 1300018I05Rik” stands inactive: 0.606; under “CCUAAAAGUGCCUUACUAATT against E330017A01Rik”, inactive: 0.714. Consider GGCAAGGUAGAGAUCAUCATT against Ggtla1, for which the z-score is inactive: 0.479. Under GCUGAUCAGCAUUAUUCACTT against Mbc2 stands inactive: -0.185. Under “GCUGCUGUGGUUCUAGUUGTT against 1110033F04Rik” stands inactive: 1.68. Under “UCUGACAUUGACUCUAGCCTT against 7420402K12Rik” stands inactive: -0.419; under GGAUCUGCUUGCAUUUGCATT against Map3k8, inactive: 0.348. Consider GGAUGUUGCGUCACCUACGTT against Zfp423, for which the z-score was inactive: -2.22. GGCCAACACUGAUACCAAATT against Plau: the z-score is inactive: 2.42. Next, GGAGAUGGCUUCUCUCUCGTT against Rarg: active: 1.37; “GGACCUGGAUUUGUGCUUUTT against 2010002N04Rik”: inactive: 0.185. Consider GGUGACAAUAAAAUGGUGATT against Fabp1, for which the z-score was inactive: 0.496.

Consider GGAAAGAUUGUUUGAAGGCTT against Cask, for which the z-score is inactive: -1.08. With “CCAGUUGUGCAAUCAACAATT against 1110006G06Rik”, the z-score was inactive: 0.345. Consider GGAGAAGACAUGUUAAUAATT against Aox1, for which the z-score is inactive: -0.486. For GGUCUUCAGCAGUCAUCAGTT against Sprr2d, the z-score was inactive: 0.0558.

With GGCUUCAGCCAGAGUUCAGTT against Zfp239, the z-score was inactive: 0.365. Under GGAUGUGUUAUCGGUGCUCTT against bM64F17.1 stands inactive: 4.24; under GGGUGUUCUAAGUAGUCGCTT against Cdk3, inactive: -0.333.

As to GGAUCCUCUUCUAUCUUUATT against Pycr1, the z-score was inactive: 0.568. Under “CCAGUGACAUUCAAUACCUTT against 4933421E11Rik” stands inactive: -0.676. Take “GGCUCAAAUGGUCACCAAUTT against 1700060E18Rik”: the z-score was inactive: 0.193. With GCUUAUAUGGCCUGAGAGATT against AI316787, the z-score was inactive: -0.634.

Take GGAUAAGAUAAUGUCUGUGTT against Olfr716: the z-score is inactive: -2.47. Next, “GGUUCUUGAAACACUUUACTT against 0610039P13Rik”: inactive: 0.209; GCCAGUGGUAUGAGCUUGUTT against Dullard: inactive: 0.245.

For the sequence GCGUAUCUGAUUGACAGAGTT against Kctd2, the z-score is inactive: 1.15.
